# Source: PubChem BioAssay AID493014 (National Center for Advancing Translational Sciences (NCATS), 2011)
# This is one part of the list. Shown are side measurements of this screen, not its main read-out; they come without a call. The list favours compounds with an active or inconclusive main result. The note in brackets gives the kind of curve behind each potency; many fits are weak.
# Assay: qHTS Assay to Find Inhibitors of Chronic Active B-Cell Receptor Signaling
# Settings: ABC-DLBCL IkBa-CBG/CBR reporter, luminescence ratio (green luciferase fused to IkBa over red control in TMD8 lymphoma cells), 4 h
# Outline: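 TMD8 human ABC-DLBCL cells with doxycycline-inducible IκBα–green luciferase fusion and unfused red luciferase, in 0.5% FBS medium; compounds up to 46 uM, 4 h at 37C. Green/red luminescence ratio, filter-overlap corrected, fitted to concentration-response curves.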
# [1] = measured here: CBR red luminescence, cell number
# [2] = measured here: IkBa-CBG green luminescence
SMILES,AC50 [1],AC50 [2]
CC(C)(C)c1ccc(C2SCC(=O)N2c2cccc(C(=O)O)c2)cc1 (stereo not drawn),"25.1 µM [rising, single point]",–
C[C@H](NC(=O)CCCn1nnc2ccccc2c1=O)C(=O)O,"5.62 µM [rising, single point]",–
COc1ccc(-c2nnc(-c3ccc(C)cc3)o2)cc1,"35.5 µM [rising, single point]",–
O=C(N/N=C/c1ccccc1C(=O)O)c1ccccc1Br,"6.31 µM [falling, partial curve, poor fit]",–
CC(=O)Nc1ccc(S(=O)(=O)Nc2ccccc2C(=O)N2CCCC2)cc1,"3.16 µM [falling, single point]",–
Oc1nc(-c2ccc(Cl)cc2)n2ccncc12,"0.447 µM [rising, full curve, poor fit]",–
CCN(CC(=O)Nc1ccc(OC)c(OC)c1)S(=O)(=O)c1ccc(C)cc1,"6.51 µM [rising, full curve, poor fit]",–
CCCCC(=O)O[C@H]1CC[C@H]2[C@@H]3CCc4cc(O)ccc4[C@H]3CC[C@]12C,"9.2 µM [rising, partial curve, poor fit]",–
CN1C2C=C3C(C#N)=C(N)C(C#N)(C#N)[C@@H](c4cccs4)C3C1CC2 (stereo partly drawn),"25.9 µM [rising, single point]",–
COc1cccc(-c2nnn(CC(=O)N(CC(C)C)C3CCS(=O)(=O)C3)n2)c1 (stereo not drawn),"10.3 µM [falling, partial curve]",–
Cc1ccc(Nc2nc(CSc3nnc(-c4ccncc4)n3-c3ccccc3C)cs2)cc1,"16.4 µM [falling, partial curve]",–
Cc1cc(C)cc(NC(=O)NCC(O)COc2ccc([N+](=O)[O-])cc2)c1 (stereo not drawn),"35.5 µM [falling, single point]",–
CN(Cc1cnccn1)Cc1cn(Cc2ccccc2)nc1-c1ccc2c(c1)OCO2,"3.16 µM [rising, single point]",–
Cc1cc(N)n2ncc(-c3ccc(Cl)cc3)c2n1,"0.1 µM [rising, full curve, poor fit]",–
Cc1oc(-c2ccc(Cl)cc2)cc1C(=O)/C(C#N)=C/Nc1cccc(OC(F)(F)F)c1,"1.26 µM [rising, partial curve, poor fit]","2.51 µM [rising, full curve, poor fit]"
O=C(Nc1nc(-c2cccnc2)cs1)c1cccc([N+](=O)[O-])c1,"0.158 µM [rising, full curve, poor fit]",–
CCC(C)c1ccc(NS(=O)(=O)c2c(C)[nH]c(=O)[nH]c2=O)cc1 (stereo not drawn),"35.5 µM [falling, single point]",–
COc1ccccc1C(=O)Nc1cc2cc(Br)ccc2oc1=O,"29.1 µM [rising, single point]",–
COc1cccc2c1OCC(CN1CCN(Cc3ccccc3)C(CCO)C1)=C2 (stereo not drawn),"5.62 µM [rising, single point]",–
C=CCNC(=S)Nc1ccc2cn[nH]c2c1,"35.5 µM [falling, single point]",–
CCOC(=O)c1[nH]nc(-c2cc(CC)c(O)cc2O)c1-c1cscn1,"1 µM [falling, full curve, poor fit]",–

# Structures above that have sulfur (10):
SMILES,AC50 [1],AC50 [2]
CC(C)(C)c1ccc(C2SCC(=O)N2c2cccc(C(=O)O)c2)cc1 (stereo not drawn),"25.1 µM [rising, single point]",–
CC(=O)Nc1ccc(S(=O)(=O)Nc2ccccc2C(=O)N2CCCC2)cc1,"3.16 µM [falling, single point]",–
CCN(CC(=O)Nc1ccc(OC)c(OC)c1)S(=O)(=O)c1ccc(C)cc1,"6.51 µM [rising, full curve, poor fit]",–
CN1C2C=C3C(C#N)=C(N)C(C#N)(C#N)[C@@H](c4cccs4)C3C1CC2 (stereo partly drawn),"25.9 µM [rising, single point]",–
COc1cccc(-c2nnn(CC(=O)N(CC(C)C)C3CCS(=O)(=O)C3)n2)c1 (stereo not drawn),"10.3 µM [falling, partial curve]",–
Cc1ccc(Nc2nc(CSc3nnc(-c4ccncc4)n3-c3ccccc3C)cs2)cc1,"16.4 µM [falling, partial curve]",–
O=C(Nc1nc(-c2cccnc2)cs1)c1cccc([N+](=O)[O-])c1,"0.158 µM [rising, full curve, poor fit]",–
CCC(C)c1ccc(NS(=O)(=O)c2c(C)[nH]c(=O)[nH]c2=O)cc1 (stereo not drawn),"35.5 µM [falling, single point]",–
C=CCNC(=S)Nc1ccc2cn[nH]c2c1,"35.5 µM [falling, single point]",–
CCOC(=O)c1[nH]nc(-c2cc(CC)c(O)cc2O)c1-c1cscn1,"1 µM [falling, full curve, poor fit]",–

# Next part:

SMILES,AC50 [1],AC50 [2]
CCCN1CCN(CCCNC(=O)c2cc3c(=O)[nH]c4ccc(C)cc4c3s2)CC1,"7.94 µM [falling, partial curve, poor fit]",–
COc1nc(Nc2nc3ccccc3c(=O)[nH]2)nc2ccc(C)cc12,"0.398 µM [falling, full curve, poor fit]",–
COc1ccc(/C=C/C(=O)O)cc1OC,"29.1 µM [rising, single point]",–
Cc1ccc(NC(=O)C(C)Sc2nnc(C)n2C2CC2)cc1S(=O)(=O)N1CCOCC1 (stereo not drawn),"32.6 µM [rising, single point]",–
Cc1ccc(C)c(OC(C)C(=O)Nc2ccc(S(=O)(=O)Nc3nccs3)cc2)c1 (stereo not drawn),"8.91 µM [falling, partial curve, poor fit]",–
COC(=O)c1ccc(NC(=O)C2CCN(C(=O)c3cc(OC)c(OC)c(OC)c3)CC2)cc1,"6.51 µM [rising, single point]",–
COc1ccc(/C=C/C(=O)c2ccoc2)cc1,"35.5 µM [falling, single point]",–
Cc1ccccc1-n1c(SCC(=O)c2cc(C)n(C)c2C)nnc1-c1cccnc1,"29.1 µM [falling, single point]",–
Cc1cccc(/C=C/c2nc3ccccc3c(=O)n2Cc2ccccc2)c1,"29.1 µM [falling, single point]",–
Cc1ccc(N/C=C/C(=O)c2ccco2)c(O)c1,"10 µM [falling, partial curve, poor fit]",–
O=C(Cc1ccc(Cl)cc1)Oc1cccc2cccnc12,"23.1 µM [falling, partial curve]","29.1 µM [falling, single point]"
CCOC(=O)N1CCN(c2ccc(Cl)cc2)CC1,"14.6 µM [rising, partial curve]",–
Cn1c(=O)[nH]c(=O)c2c1nc(Sc1nc3ccccc3s1)n2Cc1ccccc1,"29.1 µM [rising, single point]",–
CCCc1nc2ccccc2c(=O)n1NC(=O)c1c(O)c2cccc3c2n(c1=O)CCC3,"6.51 µM [falling, partial curve, poor fit]",–
CCN(CC)S(=O)(=O)c1ccc(O)c(NS(=O)(=O)c2ccccc2F)c1,"29.1 µM [rising, partial curve, poor fit]",–
CC1C(=O)NN=C1C(=O)N/N=C/c1cccs1 (stereo not drawn),"11.2 µM [falling, partial curve]",–
CC(=O)c1ccc(NC(=S)NNC(=O)c2ccncc2)cc1,"1.84 µM [falling, full curve]",–
CN(C)C(=O)c1cn(-c2ccccc2)nc1-c1cc2ccccc2o1,"15.8 µM [falling, single point]",–
O=C(CNc1ccc(F)cc1)N/N=C/C1CC=CCC1 (stereo not drawn),"11.2 µM [falling, partial curve]",–
O=C(NC1CCCCC1)C1Cc2ccccc2CN1S(=O)(=O)c1ccc(F)cc1 (stereo not drawn),"23.1 µM [falling, single point]",–
